These are yes or no findings as the source states them, for the method shown. Binding seen in cells or lysates may run through a third protein. Some entries that bind do so weakly or less than the wild type. Tags and fused reporters may be left off the sequences shown.
Target: T1, Myc-tagged wild-type MKS1 (human) (UniProt Q9NXB0)
T1 sequence: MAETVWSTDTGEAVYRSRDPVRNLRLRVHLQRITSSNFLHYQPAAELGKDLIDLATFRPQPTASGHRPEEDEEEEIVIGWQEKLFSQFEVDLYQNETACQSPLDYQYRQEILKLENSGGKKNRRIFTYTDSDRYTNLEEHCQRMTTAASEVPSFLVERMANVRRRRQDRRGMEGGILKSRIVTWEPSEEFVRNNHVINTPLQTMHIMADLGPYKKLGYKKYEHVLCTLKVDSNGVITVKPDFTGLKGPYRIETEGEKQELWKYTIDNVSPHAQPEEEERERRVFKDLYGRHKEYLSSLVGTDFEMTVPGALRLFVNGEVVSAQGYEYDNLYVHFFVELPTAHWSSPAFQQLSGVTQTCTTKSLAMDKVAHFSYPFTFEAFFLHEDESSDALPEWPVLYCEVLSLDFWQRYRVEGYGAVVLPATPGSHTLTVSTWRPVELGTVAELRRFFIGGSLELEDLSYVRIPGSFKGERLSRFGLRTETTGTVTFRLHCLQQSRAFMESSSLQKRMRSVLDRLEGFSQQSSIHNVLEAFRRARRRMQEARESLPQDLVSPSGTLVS
Assay: co-IP; Myc-MKS1 (1.5 ug) and HA-B9D2 (1.0 ug) vectors co-transfected into HEK293T, lysed 36 h after transfection; anti-Myc magnetic beads at 4 C for 4-6 h, three washes, eluted with 3x Myc peptide; blots with anti-Myc and anti-HA

- binding: binds
B1: HA-tagged B9D2 (protein, UniProt Q9BPU9 1-175)
chain: MAEVHVIGQIIGASGFSESSLFCKWGIHTGAAWKLLSGVREGQTQVDTPQIGDMAYWSHPIDLHFATKGLQGWPRLHFQVWSQDSFGRCQLAGYGFCHVPSSPGTHQLACPTWRPLGSWREQLARAFVGGGPQLLHGDTIYSGADRYRLHTAAGGTVHLEIGLLLRNFDRYGVEC

Reference: publication PMC8963843
